Measured values published in US20120213771A1.
Residue numbers refer to the chain shown, from its start. These are yes or no findings as the source states them, for the method shown. Binding can be weak; no strength is given.

B1: 1G5-1B9 (antibody, V domains shown)
VH: QVQLVESGGGVVQPGRSLRLSCAASGFSFSSYGMHWVRQAPGKGLEWVALLWYDGSHKDFADSVKGRFTISRDNSKNTLDLQMNSLRAEDTAVYYCAREGLAVPGHWYFDLWGRGTLVTVSS
VL: AIQLTQSPSSLSASVGDRVTITCRASQGISSALAWYQQKPGKAPKLLIYDASSLESGVPSRFSGSGSGTDFTLTISSLQPEDFATYYCQQFNTYPRTFGQGTKVEIK
B2: 2C2-1A10 (antibody, V domains shown)
VH: QVQLVESGGGVVQPGRSLRLSCAASGFTFSSYDIHWVRQAPGKGLEWVAVIWNDGSNKYYADSVKGRFTISRDNSTNSLFLQMNSLRAEDTAVYYCVGGTADLEHWDQGTLVTVSS
VL: DIQMTQSPSSLSASVGDRVTITCRASQGISSWLAWYQQKPEKAPKSLIYAASSLQSGVPSRFSGSGSGTDFTLTISSLQPEDFATYYCQQYNSYPLTFGGGTKVEIK
B3: 2G9-1D11 (antibody, V domains shown)
VH: B2 VH with F29L, Y32H, G98R
VL: B2 VL

Target: rhesus macaque CD27 (rhesus macaque)
Assay: hybridoma screen for cross-reactivity

Row | Binder | binding
1 | B1 | binds
2 | B2 | binds
3 | B3 | binds
